{"source": "PubChem BioAssay AID1259254 (NCATS, 2017)", "test": "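Finding genes that stop cells copying their DNA twice in one cycle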 (primary screen)", "system": "human HCT116 colorectal cancer cells", "reagents": "single siRNA against human genes", "duration": "3 days", "detection": "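Nuclei stained with Hoechst and imaged; cell-cycle phase assigned by DNA content; G2 share scaled per plate, non-targeting siRNA 0%, GMNN siRNA 100%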", "direction": "G2 robust z-score: higher = more G2 cells, more excess DNA replication", "active means": "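An siRNA counts as active if its G2 robust z-score lies at least 5 MADs above the screen median; here such calls match roughly 38% of GMNN control or more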", "note": "In all, the deposit lists about 59,000 reagents; below is a random part of them. Over the whole deposit, about 1,550 (2.6%) are marked active. 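G2 share is only a proxy for re-replication; each gene was hit by three separate siRNAs, and active genes were retested.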 Entries without a mark were called inactive. Reagents against one gene are numbered here. Not all columns of the deposit are shown. No sequences are given here. The record does not give: the amount of reagent."}
The first 2 records as a preview:
{"gene symbol":"ZNF208","siRNA no.":1,"G2 robust z-score":1.05}
{"gene symbol":"ZNF208","siRNA no.":2,"G2 robust z-score":-0.211}

Main list, from the start:
{"gene symbol":"ZNF208","siRNA no.":1,"G2 robust z-score":1.05}
{"gene symbol":"ZNF208","siRNA no.":2,"G2 robust z-score":-0.211}
{"gene symbol":"ZNF208","siRNA no.":3,"G2 robust z-score":1.06}
{"gene symbol":"ATP6V1C1","siRNA no.":1,"G2 robust z-score":-0.619}
{"gene symbol":"ATP6V1C1","siRNA no.":2,"G2 robust z-score":3.63}
{"gene symbol":"ATP6V1C1","siRNA no.":3,"G2 robust z-score":1.42}
{"gene symbol":"S100P","siRNA no.":1,"G2 robust z-score":1.21}
{"gene symbol":"S100P","siRNA no.":2,"G2 robust z-score":1.98}
{"gene symbol":"S100P","siRNA no.":3,"G2 robust z-score":0.309}
{"gene symbol":"TBX4","siRNA no.":1,"G2 robust z-score":-0.704}
{"gene symbol":"TBX4","siRNA no.":2,"G2 robust z-score":-0.576}
{"gene symbol":"TBX4","siRNA no.":3,"G2 robust z-score":"5.55 (active)"}
{"gene symbol":"C17orf67","siRNA no.":1,"G2 robust z-score":-0.791}
{"gene symbol":"C17orf67","siRNA no.":2,"G2 robust z-score":0.588}
{"gene symbol":"C17orf67","siRNA no.":3,"G2 robust z-score":-0.637}
{"gene symbol":"PSMB10","siRNA no.":1,"G2 robust z-score":-0.934}
{"gene symbol":"PSMB10","siRNA no.":2,"G2 robust z-score":3.52}
{"gene symbol":"PSMB10","siRNA no.":3,"G2 robust z-score":-0.876}
{"gene symbol":"GK5","siRNA no.":1,"G2 robust z-score":-1.54}
{"gene symbol":"GK5","siRNA no.":2,"G2 robust z-score":-0.672}
{"gene symbol":"GK5","siRNA no.":3,"G2 robust z-score":"9.21 (active)"}
{"gene symbol":"KRT8P3","siRNA no.":1,"G2 robust z-score":-0.909}
{"gene symbol":"KRT8P3","siRNA no.":2,"G2 robust z-score":-0.948}
{"gene symbol":"KRT8P3","siRNA no.":3,"G2 robust z-score":-0.3}
